The results in this text go back to the supplement of paper PMC10849652.

By UniProt entry, the sequences of proteins in these tests, tags left out. Where a name states a change or a piece, a line headed by the entry shows the natural chain unless it says otherwise.
UniProt Q9Y5L0: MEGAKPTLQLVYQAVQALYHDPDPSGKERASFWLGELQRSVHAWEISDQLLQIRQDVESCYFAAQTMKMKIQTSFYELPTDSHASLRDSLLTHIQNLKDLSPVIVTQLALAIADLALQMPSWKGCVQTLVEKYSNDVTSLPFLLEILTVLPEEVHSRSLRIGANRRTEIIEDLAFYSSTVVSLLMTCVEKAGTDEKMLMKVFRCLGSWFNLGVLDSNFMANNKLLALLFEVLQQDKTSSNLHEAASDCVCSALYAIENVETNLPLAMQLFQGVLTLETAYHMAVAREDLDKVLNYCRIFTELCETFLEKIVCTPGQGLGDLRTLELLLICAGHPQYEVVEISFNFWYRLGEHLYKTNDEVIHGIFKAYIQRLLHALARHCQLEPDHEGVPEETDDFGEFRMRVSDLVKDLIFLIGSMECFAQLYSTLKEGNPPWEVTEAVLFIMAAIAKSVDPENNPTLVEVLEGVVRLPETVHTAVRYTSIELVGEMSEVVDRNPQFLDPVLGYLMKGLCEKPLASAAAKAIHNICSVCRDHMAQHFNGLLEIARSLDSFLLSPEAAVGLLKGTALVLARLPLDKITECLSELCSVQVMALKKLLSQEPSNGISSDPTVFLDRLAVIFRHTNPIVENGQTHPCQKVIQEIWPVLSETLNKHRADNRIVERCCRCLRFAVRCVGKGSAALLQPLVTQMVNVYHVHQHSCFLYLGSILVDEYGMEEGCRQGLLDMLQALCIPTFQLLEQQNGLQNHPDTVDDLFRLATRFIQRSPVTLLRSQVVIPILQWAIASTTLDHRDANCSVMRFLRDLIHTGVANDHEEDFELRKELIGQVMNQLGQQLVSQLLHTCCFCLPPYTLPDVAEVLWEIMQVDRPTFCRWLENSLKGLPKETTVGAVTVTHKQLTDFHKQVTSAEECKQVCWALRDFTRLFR
UniProt O15164: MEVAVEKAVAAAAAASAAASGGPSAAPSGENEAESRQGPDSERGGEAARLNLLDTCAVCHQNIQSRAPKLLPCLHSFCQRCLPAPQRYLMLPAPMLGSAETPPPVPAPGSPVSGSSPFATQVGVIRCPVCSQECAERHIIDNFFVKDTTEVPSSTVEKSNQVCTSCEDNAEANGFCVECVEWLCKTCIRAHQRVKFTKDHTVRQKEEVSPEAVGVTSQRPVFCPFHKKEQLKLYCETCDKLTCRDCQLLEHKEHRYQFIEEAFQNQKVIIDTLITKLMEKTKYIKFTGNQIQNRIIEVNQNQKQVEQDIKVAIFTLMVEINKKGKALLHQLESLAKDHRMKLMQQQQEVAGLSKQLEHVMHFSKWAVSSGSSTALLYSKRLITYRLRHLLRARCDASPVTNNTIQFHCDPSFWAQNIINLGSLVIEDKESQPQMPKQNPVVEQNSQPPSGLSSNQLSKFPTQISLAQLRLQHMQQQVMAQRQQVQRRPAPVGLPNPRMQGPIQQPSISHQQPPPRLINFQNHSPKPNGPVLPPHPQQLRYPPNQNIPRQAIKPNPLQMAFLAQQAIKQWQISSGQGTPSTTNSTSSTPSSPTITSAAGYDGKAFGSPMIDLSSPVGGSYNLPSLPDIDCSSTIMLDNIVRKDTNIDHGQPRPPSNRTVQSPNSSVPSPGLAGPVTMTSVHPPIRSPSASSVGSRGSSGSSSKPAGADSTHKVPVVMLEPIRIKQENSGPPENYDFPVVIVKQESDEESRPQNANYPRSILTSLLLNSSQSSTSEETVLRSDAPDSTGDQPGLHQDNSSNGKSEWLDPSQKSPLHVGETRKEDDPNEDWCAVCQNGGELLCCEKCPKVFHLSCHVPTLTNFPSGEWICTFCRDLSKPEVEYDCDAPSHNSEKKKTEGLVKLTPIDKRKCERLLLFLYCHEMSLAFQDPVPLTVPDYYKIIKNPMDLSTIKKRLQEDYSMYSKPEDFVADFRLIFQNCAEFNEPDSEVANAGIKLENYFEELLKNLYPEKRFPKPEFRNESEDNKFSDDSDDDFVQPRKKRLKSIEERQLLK
UniProt Q8N4H5: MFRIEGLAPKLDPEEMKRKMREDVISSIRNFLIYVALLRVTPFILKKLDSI
UniProt P49815: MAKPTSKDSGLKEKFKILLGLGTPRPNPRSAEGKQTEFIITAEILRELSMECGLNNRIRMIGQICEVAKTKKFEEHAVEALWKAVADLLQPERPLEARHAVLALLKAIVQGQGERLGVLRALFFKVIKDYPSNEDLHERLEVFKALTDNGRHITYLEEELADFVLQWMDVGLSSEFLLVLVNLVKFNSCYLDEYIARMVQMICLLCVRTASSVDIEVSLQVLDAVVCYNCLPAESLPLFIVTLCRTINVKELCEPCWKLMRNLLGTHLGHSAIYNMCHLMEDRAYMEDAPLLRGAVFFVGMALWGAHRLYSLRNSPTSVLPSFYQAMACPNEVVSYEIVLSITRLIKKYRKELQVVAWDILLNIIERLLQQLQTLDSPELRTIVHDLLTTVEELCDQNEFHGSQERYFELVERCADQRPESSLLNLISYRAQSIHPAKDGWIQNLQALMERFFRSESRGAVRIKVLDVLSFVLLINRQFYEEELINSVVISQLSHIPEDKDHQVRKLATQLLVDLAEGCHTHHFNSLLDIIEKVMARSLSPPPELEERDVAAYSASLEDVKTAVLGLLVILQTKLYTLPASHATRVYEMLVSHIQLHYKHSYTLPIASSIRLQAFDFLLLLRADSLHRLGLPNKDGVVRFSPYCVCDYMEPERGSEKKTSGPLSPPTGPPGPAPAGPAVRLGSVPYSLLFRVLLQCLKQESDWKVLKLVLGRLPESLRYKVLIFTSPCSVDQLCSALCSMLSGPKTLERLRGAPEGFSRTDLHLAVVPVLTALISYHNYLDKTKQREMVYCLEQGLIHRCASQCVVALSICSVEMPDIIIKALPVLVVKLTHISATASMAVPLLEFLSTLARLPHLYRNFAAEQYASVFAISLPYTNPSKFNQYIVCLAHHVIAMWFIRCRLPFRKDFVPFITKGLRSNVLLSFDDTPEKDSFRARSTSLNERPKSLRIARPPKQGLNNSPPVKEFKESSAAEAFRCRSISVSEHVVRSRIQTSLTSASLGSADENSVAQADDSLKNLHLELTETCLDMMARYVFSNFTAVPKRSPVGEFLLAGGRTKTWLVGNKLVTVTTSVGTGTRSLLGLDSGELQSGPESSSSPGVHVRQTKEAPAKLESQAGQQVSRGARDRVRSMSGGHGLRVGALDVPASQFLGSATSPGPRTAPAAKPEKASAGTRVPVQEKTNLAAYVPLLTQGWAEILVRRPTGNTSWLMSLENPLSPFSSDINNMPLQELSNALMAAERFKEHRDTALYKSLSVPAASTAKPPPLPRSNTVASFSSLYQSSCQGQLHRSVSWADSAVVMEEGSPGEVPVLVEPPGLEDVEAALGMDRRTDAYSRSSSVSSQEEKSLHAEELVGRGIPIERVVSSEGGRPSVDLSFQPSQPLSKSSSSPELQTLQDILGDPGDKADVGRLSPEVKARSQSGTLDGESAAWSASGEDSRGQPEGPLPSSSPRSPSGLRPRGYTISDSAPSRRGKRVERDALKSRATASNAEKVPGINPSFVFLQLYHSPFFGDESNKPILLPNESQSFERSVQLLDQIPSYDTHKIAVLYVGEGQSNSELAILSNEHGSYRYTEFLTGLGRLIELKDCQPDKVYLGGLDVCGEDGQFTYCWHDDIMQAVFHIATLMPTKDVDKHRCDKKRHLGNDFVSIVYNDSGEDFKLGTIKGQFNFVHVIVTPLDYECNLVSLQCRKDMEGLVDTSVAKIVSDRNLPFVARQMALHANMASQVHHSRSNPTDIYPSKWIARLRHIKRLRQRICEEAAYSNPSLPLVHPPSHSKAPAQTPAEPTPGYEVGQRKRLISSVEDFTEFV
UniProt Q9P0U1: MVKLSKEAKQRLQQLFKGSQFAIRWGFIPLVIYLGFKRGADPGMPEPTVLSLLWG
UniProt Q9H4I3: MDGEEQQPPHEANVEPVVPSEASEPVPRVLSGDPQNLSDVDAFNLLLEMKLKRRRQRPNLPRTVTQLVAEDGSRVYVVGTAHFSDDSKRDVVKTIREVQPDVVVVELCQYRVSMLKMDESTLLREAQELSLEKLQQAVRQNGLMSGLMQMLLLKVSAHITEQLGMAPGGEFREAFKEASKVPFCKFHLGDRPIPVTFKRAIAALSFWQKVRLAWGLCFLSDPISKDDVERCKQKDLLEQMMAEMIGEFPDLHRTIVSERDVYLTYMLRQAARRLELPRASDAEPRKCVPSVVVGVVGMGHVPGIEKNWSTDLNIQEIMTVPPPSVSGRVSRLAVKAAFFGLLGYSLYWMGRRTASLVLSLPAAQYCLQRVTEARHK

The list shows a part of the results.

Holding throughout (test): log2 fold change, soluble protein after heating vs DMSO (PISA); higher = thermal stabilisation; K562 cells, 10 uM, 30 min; active = over 0.2 and 3.5 SD of the protein, either way, in both replicates (recomputed)
Compound in assay [1]: CS(=O)(=O)c1ccc(-c2cnc(N)c(C(=O)Nc3ccccc3)n2)cc1
In outline:
(§1)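 Thermal stability values are relative to control samples and come from duplicates. They are expressed as log2 fold changes. For measurement, K562 cells (2×10^6 cells/mL) received 10 μM compound for 30 min, and aliquots were heated for 3 min over 48°C-58°C, pooled, and extracted at 4°C in PBS with 0.5% NP-40. Soluble protein, the supernatant after 21,000xg for 90 min, was quantified by TMTpro 16plex LC-MS/MS with equalised channel sums.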

Compound in a further assay: C[C@@H](Oc1cc(-c2cnn(C3CCNCC3)c2)cnc1N)c1c(Cl)ccc(F)c1Cl [crizotinib]
In outline: as §1

Compound in assay [2]: C[C@@H]1COCCN1C2=NC(=NC(=C2)C3(CC3)S(=O)(=O)C)C4=C5C=CNC5=CC=C4
In a few lines: as §1

Compound in assay [3]: C[C@H](C1=CC=C(C=C1)C(=O)NC2=C3C=CNC3=NC=C2)N
In a few lines: as §1

Compound in another assay: Cc1cc(Nc2cc(CN3CCOCC3)c3nc(C)c(Cc4ccc(Cl)cc4F)n3n2)n[nH]1 [gandotinib]
In outline:
as §1

Compound in assay [4]: Cc1cc(SCc2sc(-c3ccc(C(F)(F)F)cc3)nc2C)ccc1OCC(=O)O
In outline:
as §1

Compound in another assay: Cc1ccc(-n2nc(C(C)(C)C)cc2NC(=O)Nc2ccc(OCCN3CCOCC3)c3ccccc23)cc1 [doramapimod]
In outline: as §1

Compound in the next assay: Cc1ccc(C(=O)N(CCCN)[C@@H](c2nc3cc(Cl)ccc3c(=O)n2Cc2ccccc2)C(C)C)cc1 [ispinesib]
In a few lines: as §1

Compound in the next assay: Cc1ccc(NC(=O)c2ccc(CN3CC[C@H](N(C)C)C3)c(C(F)(F)F)c2)cc1Nc1nccc(-c2cncnc2)n1 [bafetinib]
In outline:
as §1

Compound in assay [5]: Cc1cccc(CC(=O)N2CCc3c2ccc(-c2cn(C)c4ncnc(N)c24)c3F)n1
In outline: as §1

Compound in the next assay: Cc1cn(-c2cc(NC(=O)c3ccc(C)c(Nc4nccc(-c5cccnc5)n4)c3)cc(C(F)(F)F)c2)cn1 [nilotinib]
In a few lines:
as §1

Compound in assay [6]: Cc1nc(Nc2n[nH]c3c2CN(C(=O)N[C@H](CN(C)C)c2ccccc2)C3(C)C)c2sccc2n1
In outline:
as §1

Compound in a further assay: Cc1nc(Nc2ncc(C(=O)Nc3c(C)cccc3Cl)s2)cc(N2CCN(CCO)CC2)n1 [dasatinib]
In a few lines: as §1

Compound in assay [7]: Cc1ncc(-c2ccnc(Nc3ccc(S(C)(=O)=O)cc3)n2)n1C(C)C
In a few lines:
as §1

Compound in assay [8]: Cn1cc(-c2ccc3c(c2)CCN3C(=O)Cc2cccc(C(F)(F)F)c2)c2c(N)ncnc21
In a few lines:
as §1

Compound in assay [9]: Cn1cc(-c2ccc3nnc(C(F)(F)c4ccc5ncccc5c4)n3n2)cn1
In outline: as §1

Compound in a further assay: Cn1cncc1[C@@](N)(c1ccc(Cl)cc1)c1ccc2c(c1)c(-c1cccc(Cl)c1)cc(=O)n2C [tipifarnib]
In a few lines: as §1

Compound in the next assay: FC(F)(F)c1ccc(/C=C/c2nc(COc3ccc(CCCCn4ccnn4)cc3)co2)cc1 [mubritinib]
In a few lines:
as §1

Compound in a further assay: C[C@H](Nc1ncnc2nc[nH]c12)c1cc2cccc(Cl)c2c(=O)n1-c1ccccc1 [duvelisib]
In outline: as §1

Compound in a further assay: Cc1cc(Nc2cc(N3CCN(C)CC3)nc(Sc3ccc(NC(=O)C4CC4)cc3)n2)n[nH]1 [tozasertib]
In a few lines:
as §1

Consider TNPO3 (UniProt Q9Y5L0), for which the log2 fold change in [1] is inactive: -0.028; with crizotinib it was inactive: -0.151; in [2], inactive: 0.025; in [3] it was inactive: -0.124; with gandotinib, inactive: -0.143; in [4], inactive: 0.046. Besides, the log2 fold change with doramapimod is inactive: -0.046; with ispinesib, inactive: 0.008; with bafetinib, inactive: -0.057; in [5], inactive: 0.041; with nilotinib, inactive: -0.052; in assay [6], inactive: -0.123. In addition, the log2 fold change with dasatinib is inactive: -0.103; in assay [7], inactive: -0.028; in [8] it was inactive: -0.001; in assay [9], inactive: -0.014; with tipifarnib, inactive: -0.121; with mubritinib, inactive: 0.061.
On to TRIM24 (UniProt O15164), for which the log2 fold change was inactive: 0.054 in assay [1]; inactive: -0.036 with crizotinib; inactive: 0.272 in [2]; inactive: 0.069 with duvelisib; inactive: -0.102 in the assay with gandotinib; inactive: 0.291 with tozasertib. In addition, the log2 fold change in [4] is inactive: 0.125; with doramapimod, inactive: -0.103; with ispinesib, inactive: 0; with bafetinib it was inactive: 0.05; in assay [5] it was inactive: -0.031; with nilotinib it was inactive: 0.028. Moreover, the log2 fold change in assay [6] was inactive: -0.018; with dasatinib, inactive: -0.242; in assay [7], inactive: -0.018; in [9] it was inactive: -0.146; in the assay with tipifarnib, inactive: 0.137; with mubritinib it was inactive: -0.005.
TOMM5 isoform 2 (UniProt Q8N4H5): the log2 fold change is inactive: 0.043 in [1]; inactive: 0.139 with crizotinib; inactive: 0.124 in [2]; inactive: -0.053 in [3]; inactive: 0.136 with gandotinib; inactive: -0.023 in assay [4]. The log2 fold change with doramapimod was inactive: -0.078; with ispinesib it was inactive: -0.051; in the assay with bafetinib it was inactive: -0.141; in [5], inactive: -0.114; in the assay with nilotinib, inactive: 0.079; in assay [6] it was inactive: 0.004. For the same target, the log2 fold change in the assay with dasatinib was inactive: -0.004; in assay [7], inactive: -0.079; in assay [8] it was inactive: 0.062; in assay [9] it was inactive: 0.217; with tipifarnib, inactive: 0.107; with mubritinib it was inactive: 0.038.
Turning to TSC2 (UniProt P49815), the log2 fold change in assay [1] is inactive: -0.09; with crizotinib, inactive: 0.065; in assay [2], inactive: -0.139; in assay [3], inactive: 0.218; with gandotinib, inactive: -0.091; with doramapimod, inactive: 0.09. Further, the log2 fold change was inactive: 0.012 with ispinesib; inactive: -0.024 with bafetinib; inactive: 0.109 in [5]; inactive: 0.066 in [8]; inactive: 0.047 in assay [9]; inactive: 0.019 in the assay with tipifarnib. For the same target, the log2 fold change with mubritinib was inactive: -0.048.
With TOMM7 (UniProt Q9P0U1), the log2 fold change in assay [1] was inactive: 0.013; with crizotinib, inactive: 0.123; in assay [2], inactive: 0.027; with duvelisib, inactive: 0.139; with gandotinib it was inactive: -0.056; in the assay with tozasertib, inactive: -0.024. Besides, the log2 fold change in [4] is inactive: 0.051; with doramapimod it was inactive: 0.083; with ispinesib, inactive: 0.058; in the assay with bafetinib it was inactive: -0.018; in [5], inactive: -0.005; in the assay with nilotinib, inactive: 0.014. Further, the log2 fold change in assay [6] was inactive: 0.014; with dasatinib, inactive: 0.049; in assay [7], inactive: -0.083; in assay [9], inactive: 0.15; with tipifarnib it was inactive: 0.051; in the assay with mubritinib, inactive: 0.009.
With TRABD (UniProt Q9H4I3), the log2 fold change in [1] is inactive: -0.041; in the assay with crizotinib, inactive: 0.174; in assay [2], inactive: 0.097; in [3] it was inactive: -0.062; in the assay with gandotinib, inactive: 0.059; with doramapimod, inactive: 0.025. Moreover, the log2 fold change with ispinesib is active: 0.597; in the assay with bafetinib, inactive: 0.202; in [5], inactive: -0.038; with nilotinib, inactive: 0.185; in assay [6], inactive: 0.02; in assay [7], inactive: -0.093. For the same target, the log2 fold change in assay [8] was inactive: 0.145; in assay [9] it was inactive: -0.013; in the assay with tipifarnib it was inactive: 0.012; with mubritinib it was inactive: -0.032.
